Values of other authors as cited in US8614215B2, “Quinoxaline inhibitors of phosphoinositide-3-kinases (PI3Ks)” (Merck Serono SA, priority 2007, dated 2013).
At least one structure is not confirmed: it was looked up by name or label, or the drawing left a doubt.

System: Class I PI3-kinases
Details: Fruman et al., 1998; read-out: IC50 against each of these PI3-kinases; cited from earlier work

## O=c1cc(N2CCOCC2)oc2c(-c3ccccc3)cccc12 [LY294002]
  IC50: 15 to 20 µM
